Source: PubChem BioAssay AID256 (DTP/NCI, 2004)
The list shows only some results of the screen, not a fair sample: it gathers tests that were run many times, whatever their T/C, doses with no T/C, and many T/C values between a quarter and a half above the control. Other doses and runs of a compound stand elsewhere. T/C is the treated group as % of the vehicle group. Some doses have a count of surviving animals in place of a T/C: the source holds a T/C of zero for them, seemingly a mark for toxic or unscored doses. Some survivor counts are full or nearly so, which does not show that the dose was tolerated: survival well below the control is almost never listed, so the zero probably covers shortened survival too. Survivors were counted at the toxicity check, usually on the fifth day, unless a day is given; later deaths do not show. Schedule codes are those of the source, taken here to give the interval after Q, in days (D) or hours (H), and the number of doses after X. Some entries hold several experiments; their values stand side by side, smallest first. Where survival is the endpoint, the PubChem record calls one and a half times the control and up active, and a quarter to a half above the control has no call in these data; cut-offs in other NCI protocols can differ. Some T/C values carry the count of animals alive at the toxicity check (mostly the fifth day); without a count, all were alive then.

Test system: CD2F1 mice, L1210 leukemia ip, survival T/C
Test: NCI In Vivo Anticancer Drug Screen. Data for tumor model L1210 Leukemia (intraperitoneal) in CD2F1 (CDF1) mice
Conditions: higher T/C = longer survival
Summary of the method: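 Implant tumor; dose compound or vehicle; measure endpoint in both groups; report treated divided by control.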

[1] = T/C endpoint: mean survival time, dose: 25.0 mg/kg/injection, schedule: Q01DX009 (ip), vehicle: saline with Tween-80
[2] = T/C endpoint: mean survival time, dose: 50.0 mg/kg/injection, schedule: Q01DX009 (ip), vehicle: saline with Tween-80
[3] = T/C endpoint: mean survival time, dose: 100.0 mg/kg/injection, schedule: Q01DX009 (ip), vehicle: saline with Tween-80
[4] = T/C endpoint: mean survival time, dose: 200.0 mg/kg/injection, schedule: Q04DX002 (ip), vehicle: saline with Tween-80
[5] = T/C endpoint: mean survival time, dose: 6.25 mg/kg/injection, schedule: Q01DX009 (ip), vehicle: saline with Tween-80
[6] = T/C endpoint: mean survival time, dose: 12.5 mg/kg/injection, schedule: Q01DX009 (ip), vehicle: saline with Tween-80
[7] = T/C endpoint: mean survival time, dose: 200.0 mg/kg/injection, schedule: Q01DX009 (ip), vehicle: saline with Tween-80
[8] = T/C endpoint: mean survival time, dose: 400.0 mg/kg/injection, schedule: Q04DX002 (ip), vehicle: saline with Tween-80
[9] = T/C endpoint: mean survival time, dose: 300.0 mg/kg/injection, schedule: Q01DX001 (ip), vehicle: saline
[10] = T/C endpoint: mean survival time, dose: 100.0 mg/kg/injection, schedule: Q04DX002 (ip), vehicle: saline with Tween-80

CC12CCC(c3cn(C(=O)c4cccnc4)nc31)C2(C)C (stereo not drawn)
survivor count (T/C endpoint: mean survival time, dose: 200.0 mg/kg/injection, schedule: Q01DX009 (ip), vehicle: Klucel (hydroxypropylcellulose) (HPC)): 3 of 3

CCOC(=O)Cc1cnc(SC)[nH]c1=O
survivor count (T/C endpoint: mean survival time, dose: 400.0 mg/kg/injection, schedule: Q04DX003 (ip), vehicle: Klucel (hydroxypropylcellulose) (HPC)): 6 of 6

COC(=O)Nc1cn2cc(C(=O)c3cccs3)ccc2n1
survivor count (T/C endpoint: median survival time, dose: 100.0 mg/kg/injection, schedule: Q01DX009 (ip), vehicle: Klucel (hydroxypropylcellulose) (HPC)): 5 of 6
survivor count (T/C endpoint: median survival time, dose: 200.0 mg/kg/injection, schedule: Q01DX009 (ip), vehicle: Klucel (hydroxypropylcellulose) (HPC)): 6 of 6

Cc1cc(N(CCOS(C)(=O)=O)CCOS(C)(=O)=O)ccc1C=Nc1ccc(-c2csc(Cc3ccccc3)n2)cc1
T/C [1]: 130 % of control
T/C [2]: 136 % of control

N#Cc1[nH]nc2ncnc(NC(=O)C(F)(F)F)c12
survivor count (T/C endpoint: mean survival time, dose: 100.0 mg/kg/injection, schedule: Q01DX005 (ip), vehicle: water): 1 of 3

NC1=NCCCN1
survivor count [1]: 5 of 6
survivor count [2]: 2 of 6
survivor count [3]: 0 of 6

C[N+]12CCC34c5ccccc5NC3C3C(CC(=O)[O-])OCC=C(C1)C3CC42 (stereo not drawn)
survivor count (T/C endpoint: mean survival time, dose: 300.0 mg/kg/injection, schedule: Q01DX001 (ip), vehicle: other): 1 of 6

COc1cc(C(=O)C=C(C(F)(F)F)C(F)(F)F)cc(OC)c1OC
survivor count (T/C endpoint: mean survival time, dose: 400.0 mg/kg/injection, schedule: Q04DX003 (ip), vehicle: saline with Tween-80): 2 of 6

[CH3][Sn]1([CH3])[O]C2C(CO)OC(n3cnc4c(=O)[nH]c(N)nc43)C2[O]1 (stereo not drawn)
survivor count (T/C endpoint: mean survival time, dose: 200.0 mg/kg/injection, schedule: Q01DX005 (ip), vehicle: other): 0 of 6

ClCC[Se](Cl)(Cl)c1ccccc1
survivor count (T/C endpoint: mean survival time, dose: 12.5 mg/kg/injection, schedule: Q01DX009 (ip), vehicle: saline): 3 of 6 and 5 of 6
survivor count (T/C endpoint: mean survival time, dose: 25.0 mg/kg/injection, schedule: Q01DX009 (ip), vehicle: saline): 0 of 6 and 3 of 6

Nc1nc(N)c2[nH]c(-c3ccccc3)nc2n1
survivor count (T/C endpoint: mean survival time, dose: 100.0 mg/kg/injection, schedule: Q01DX005 (ip), vehicle: saline with Tween-80): 5 of 6

COc1ccc(NC(=O)Oc2ccc(SC)c(C)c2)cc1
survivor count [4]: 3 of 3

Cc1cccc(Br)[n+]1[O-]
survivor count (T/C endpoint: mean survival time, dose: 400.0 mg/kg/injection, schedule: Q04DX003 (ip), vehicle: saline): 0 of 6

CSc1ccccc1C[P+](c1ccccc1)(c1ccccc1)c1ccccc1
survivor count [5]: 6 of 6
survivor count [6]: 5 of 6
survivor count [1]: 2 of 6
survivor count [3]: 0 of 6
survivor count [7]: 0 of 6
survivor count (T/C endpoint: mean survival time, dose: 400.0 mg/kg/injection, schedule: Q01DX009 (ip), vehicle: saline with Tween-80): 0 of 6

CCCCCCCCCCCCOP(=S)(S)OCCCCCCCCCCCC.[Cd]
survivor count [5]: 6 of 6
survivor count [6]: 6 of 6
survivor count [1]: 5 of 6

CCC1(c2ccccc2)C(=O)N(Cl)C(=O)N(Cl)C1=O
survivor count (T/C endpoint: mean survival time, dose: 200.0 mg/kg/injection, schedule: Q01DX001 (ip), vehicle: saline with Tween-80): 3 of 6
survivor count (T/C endpoint: mean survival time, dose: 400.0 mg/kg/injection, schedule: Q01DX001 (ip), vehicle: saline with Tween-80): 2 of 6

Cc1c(N=NN(C)C)cc[n+]([O-])c1C
T/C (T/C endpoint: mean survival time, dose: 12.5 mg/kg/injection, schedule: Q01DX009 (ip), vehicle: water): 125 % of control
T/C (T/C endpoint: mean survival time, dose: 16.5 mg/kg/injection, schedule: Q01DX009 (ip), vehicle: water): 126 % of control
T/C (T/C endpoint: mean survival time, dose: 25.0 mg/kg/injection, schedule: Q01DX009 (ip), vehicle: water): 142 % of control
T/C (T/C endpoint: mean survival time, dose: 50.0 mg/kg/injection, schedule: Q01DX009 (ip), vehicle: water): 137 % of control
survivor count (T/C endpoint: mean survival time, dose: 100.0 mg/kg/injection, schedule: Q01DX009 (ip), vehicle: water): 6 of 6
survivor count (T/C endpoint: mean survival time, dose: 200.0 mg/kg/injection, schedule: Q01DX009 (ip), vehicle: water): 1 of 6

COc1cc(OC)c(NC(=O)N2CCN(C)CC2)cc1Cl
survivor count [7]: 0 of 3

Cc1cc(Cl)nc(N)n1
survivor count (T/C endpoint: mean survival time, dose: 400.0 mg/kg/injection, schedule: Q04DX002 (ip), vehicle: Klucel (hydroxypropylcellulose) (HPC)): 2 of 3

C[C@@](O)(/C=C/[C@H]1CC=CC(=O)O1)[C@@H](C[C@@H](O)\C=C/C=C\C=C\CO)OP(=O)(O)O
T/C (T/C endpoint: median survival time, dose: 0.78 mg/kg/injection, schedule: Q01DX009 (ip), vehicle: other): 128 % of control
T/C (T/C endpoint: median survival time, dose: 0.78 mg/kg/injection, schedule: Q01DX009 (ip), vehicle: saline): 140 % of control
T/C (T/C endpoint: median survival time, dose: 1.56 mg/kg/injection, schedule: Q01DX009 (ip), vehicle: other): 137 % of control
T/C (T/C endpoint: median survival time, dose: 3.12 mg/kg/injection, schedule: Q01DX005 (iv), vehicle: saline): 128 % of control
T/C (T/C endpoint: median survival time, dose: 6.25 mg/kg/injection, schedule: Q01DX005 (iv), vehicle: saline): 145 % of control
T/C (T/C endpoint: median survival time, dose: 12.5 mg/kg/injection, schedule: Q01DX009 (ip), vehicle: other): 146 % of control
survivor count (T/C endpoint: median survival time, dose: 25.0 mg/kg/injection, schedule: Q01DX009 (ip), vehicle: other): 1 of 6 and 4 of 6
T/C (T/C endpoint: median survival time, dose: 25.0 mg/kg/injection, schedule: Q01DX009 (ip), vehicle: saline): 132 % of control [5 of 6 alive]
survivor count (T/C endpoint: median survival time, dose: 50.0 mg/kg/injection, schedule: Q01DX009 (ip), vehicle: other): 0 of 6 and 3 of 6

O=[N+]([O-])c1ccc(OC(=S)c2ccccc2)cc1
survivor count [8]: 0 of 3

C[N+]1(C)CCc2cc(O)c(O)cc2C1Cc1ccc(O)c(O)c1 (stereo not drawn)
survivor count (T/C endpoint: mean survival time, dose: 150.0 mg/kg/injection, schedule: Q01DX001 (ip), vehicle: saline): 0 of 6
survivor count [9]: 0 of 6

COc1cc(OC)c(NC(=O)Oc2ccc(C(C)(C)C)cc2Br)cc1Cl
survivor count [2]: 3 of 3

CC1CN(C2(c3ccccc3)CCCCC2)CCC12OCCO2 (stereo not drawn)
survivor count [8]: 0 of 3

CC(C)NC(=O)NO
survivor count (T/C endpoint: mean survival time, dose: 93.0 mg/kg/injection, schedule: Q03HX024 (ip), vehicle: saline with Tween-80): 5 of 8
survivor count (T/C endpoint: mean survival time, dose: 140.0 mg/kg/injection, schedule: Q03HX024 (ip), vehicle: saline with Tween-80): 3 of 8
survivor count (T/C endpoint: mean survival time, dose: 210.0 mg/kg/injection, schedule: Q03HX024 (ip), vehicle: saline with Tween-80): 0 of 8

O=C1c2ccc([N+](=O)[O-])cc2-c2c1cccc2[N+](=O)[O-]
survivor count [10]: 3 of 3

N#CCCCN=[N+]=[N-]
survivor count [9]: 0 of 6

[Cl][Sn]([c]1ccccc1)([c]1ccccc1)[c]1ccccc1
survivor count (T/C endpoint: mean survival time, dose: 20.0 mg/kg/injection, schedule: Q04DX003 (ip), vehicle: saline with Tween-80): 6 of 6
survivor count (T/C endpoint: mean survival time, dose: 40.0 mg/kg/injection, schedule: Q04DX003 (ip), vehicle: saline with Tween-80): 2 of 6
survivor count (T/C endpoint: mean survival time, dose: 100.0 mg/kg/injection, schedule: Q01DX001 (ip), vehicle: saline): 2 of 4
survivor count (T/C endpoint: mean survival time, dose: 200.0 mg/kg/injection, schedule: Q01DX001 (ip), vehicle: saline): 0 of 4
survivor count (T/C endpoint: mean survival time, dose: 400.0 mg/kg/injection, schedule: Q01DX001 (ip), vehicle: saline): 0 of 4

COc1cc2c(cc1OC)C(c1cc(OC)c(OC)c(OC)c1)=NCC2
survivor count (T/C endpoint: mean survival time, dose: 100.0 mg/kg/injection, schedule: Q04DX003 (ip), vehicle: saline with Tween-80): 6 of 6

CC(=O)CC(C)=O.CC(=O)CC(C)=O.[Pd]
survivor count (T/C endpoint: mean survival time, dose: 25.0 mg/kg/injection, schedule: Q04DX002 (ip), vehicle: saline with Tween-80): 0 of 3
survivor count [10]: 0 of 3
survivor count [4]: 0 of 3
survivor count [8]: 0 of 3

ClCCN(CCCl)c1ccc(CCN2CCCCC2)cc1
T/C (T/C endpoint: mean survival time, dose: 6.25 mg/kg/injection, schedule: Q01DX009 (ip), vehicle: Klucel (hydroxypropylcellulose) (HPC)): 128 % of control

O=C(N/N=C/c1ccc2c(c1)OCO2)c1cccc(C(F)(F)F)c1
survivor count [3]: 3 of 3
